Publication PMC3084784
These are yes or no findings as the source states them, for the method shown.

Chains of the proteins cited; added tags and fusions are not shown. Residues count along the entry.
UniProt Q8N423, residues 24-220: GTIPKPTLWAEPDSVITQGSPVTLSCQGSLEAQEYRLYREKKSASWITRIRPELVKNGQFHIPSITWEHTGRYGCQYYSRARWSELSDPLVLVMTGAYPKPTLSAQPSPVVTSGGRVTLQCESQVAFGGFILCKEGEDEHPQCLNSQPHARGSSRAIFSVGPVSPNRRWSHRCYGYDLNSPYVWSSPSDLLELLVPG

Biological target: LILRB2 D1D2 (human) (UniProt Q8N423)
Test: SEC; size exclusion chromatography of the refolded proteins (Superdex 75 10/300 GL) with 12% SDS-PAGE of the main fractions; both purified

binding: no binding
Substance: LILRB2 D1D2 (from UniProt Q8N423 24-220) (domain or fragment)
